Measurements taken from paper PMC3585328.
No constants are given. Whether binding was seen depends on the method and setting.

Protein sequences, listed by entry. Tags and fused reporters are not part of them.
UniProt Q9LQX5: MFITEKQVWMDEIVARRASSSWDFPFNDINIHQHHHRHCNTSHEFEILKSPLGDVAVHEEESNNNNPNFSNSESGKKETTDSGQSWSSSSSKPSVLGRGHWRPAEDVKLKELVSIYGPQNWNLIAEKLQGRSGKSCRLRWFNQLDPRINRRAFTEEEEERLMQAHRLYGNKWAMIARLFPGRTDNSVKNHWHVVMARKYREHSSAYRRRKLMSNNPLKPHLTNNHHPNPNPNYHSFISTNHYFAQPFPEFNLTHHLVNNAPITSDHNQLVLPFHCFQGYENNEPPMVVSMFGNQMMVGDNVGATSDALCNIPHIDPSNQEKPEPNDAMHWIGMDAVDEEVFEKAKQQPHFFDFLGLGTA
UniProt Q9SEZ4: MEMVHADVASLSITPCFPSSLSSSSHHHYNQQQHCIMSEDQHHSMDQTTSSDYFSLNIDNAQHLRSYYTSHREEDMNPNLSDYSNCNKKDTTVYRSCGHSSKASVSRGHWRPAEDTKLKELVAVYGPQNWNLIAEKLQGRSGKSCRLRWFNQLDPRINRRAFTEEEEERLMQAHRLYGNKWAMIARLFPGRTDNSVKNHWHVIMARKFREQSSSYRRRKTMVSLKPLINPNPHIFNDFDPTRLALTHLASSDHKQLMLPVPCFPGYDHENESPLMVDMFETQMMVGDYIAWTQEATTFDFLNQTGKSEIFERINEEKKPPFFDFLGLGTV

Target: T1, AtAS2 (Arabidopsis) (UniProt O04479)
T1 sequence: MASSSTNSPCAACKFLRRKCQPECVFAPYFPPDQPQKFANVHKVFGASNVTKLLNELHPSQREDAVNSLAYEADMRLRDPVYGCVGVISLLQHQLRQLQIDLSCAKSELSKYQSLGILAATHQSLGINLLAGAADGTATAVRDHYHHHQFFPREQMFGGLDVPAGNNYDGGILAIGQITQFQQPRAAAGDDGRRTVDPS
Test: two-hybrid; Gal4-based system (Clontech); baits in pGBKT7, preys in pGADT7, co-transformed into yeast; selection on SD/-Trp-Leu-His-Ade medium, positive clones assayed for X-gal activity

binding | Substance
no binding | AtLOF1 (from UniProt Q9LQX5 1-359)
no binding | AtLOF2 (from UniProt Q9SEZ4 1-330)
